Experimental data reported in patent US6652921B2, “Wood containing fixed sorbic acid or sorbic acid salts” (Nutrinova Nutrition Specialties & Food Ingredients GmbH, priority 2000, dated 2003).

Experiment: Sorbic acid content in a layer about 2 mm deep of sprucewood boards after dipping in fixing solution and potassium sorbate solution
Details: per wood surface; for Amount of sorbic acid: Variant A (fixing solution first, then potassium sorbate 5% by weight); for Sorbic acid: Variant B (potassium sorbate solution first, then fixing solution)

SMILES | Amount of sorbic acid (wood moisture 9.3%) | Amount of sorbic acid (wood moisture 18.8%) | Amount of sorbic acid (wood moisture 19.4%) | Sorbic acid (wood moisture 9.3%) | Sorbic acid (wood moisture 18.8%) | Sorbic acid (wood moisture 19.4%)
O=C(O)CC(O)(CC(=O)O)C(=O)O [Citric acid] | 37 g/m^2 | 40 g/m^2 | 38 g/m^2 | 13 g/m^2 | 17 g/m^2 | 18 g/m^2
O=S(=O)([O-])[O-].[Mg+2] [MgSO4] | 23 g/m^2 | 23 g/m^2 | 23 g/m^2 | 14 g/m^2 | – | –
[Ca+2].[Cl-].[Cl-] [CaCl2] | 24 g/m^2 | 34 g/m^2 | 31 g/m^2 | 13 g/m^2 | 14 g/m^2 | 11 g/m^2
CC(O)C(=O)O (stereo not shown) [Lactic acid] | 25 g/m^2 | 28 g/m^2 | 33 g/m^2 | 9 g/m^2 | 12 g/m^2 | 14 g/m^2
